This is one part of the list.
target: OsWRKY34 (Oryza sativa, UniProt Q0JBA9 1-250); assay: protein-binding microarray (RPBM); PBS, 2% BSA, 51.3 ng/ul salmon testes DNA, 50 uM zinc acetate, 200 nM TF, 25 C, 1 h; high values mean tight binding; details: protein: recombinant; tags: N-terminal polyhistidine and DsRed monomer fusion (pET32a); label: CyDye5-dUTP incorporated in the synthesized complementary strand; 3' TTTTT single-stranded linker to array surface; dsDNA, one strand shown
How it was run: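 A custom Agilent array was converted to double-stranded form by primer extension with Cy5-dUTP and blocked with 2% BSA. Protein at 200 nM in PBS with 2% BSA, salmon testes DNA and 50 µM zinc acetate was applied for 1 h at 25 °C, followed by washing. The proteins were polyhistidine–DsRed N-terminal fusions of transcription factors, expressed in E. coli BL21-CodonPlus and Ni–NTA-purified. The binding signal is per-feature fluorescence intensity (arbitrary units) from an Axon 4000B scanner.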

Amino acid sequences for entries named in this document (tags omitted).
UniProt Q0JBA9, entry or part of it: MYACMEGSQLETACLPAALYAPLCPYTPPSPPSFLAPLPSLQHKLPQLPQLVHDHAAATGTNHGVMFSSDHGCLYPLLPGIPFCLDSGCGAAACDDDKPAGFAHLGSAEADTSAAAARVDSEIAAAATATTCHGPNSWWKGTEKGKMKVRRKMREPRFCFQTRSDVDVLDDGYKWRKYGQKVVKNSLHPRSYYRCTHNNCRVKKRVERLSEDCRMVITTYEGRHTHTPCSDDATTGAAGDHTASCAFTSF

Row | Sequence | binding signal
1 | AATGTATGACGCCGTTGACTTTTTATCAAACGTTTGACCACGGAGTCACCTAGTGCAG | 34800 fluorescence intensity (a.u.)
2 | TGCTTCTTTTTCCCACATTCTCTCATGGATATCGATCCAGCGGAGTCACCTAGTGCAG | 9620 fluorescence intensity (a.u.)
3 | CACTGGTCGTACCCGTGCGCCGCACTGCGTCGCGCCACGCCGGAGTCACCTAGTGCAG | 8290 fluorescence intensity (a.u.)
4 | TGTCTGAGCGACATAAATCATATTGCCTACTTTCTCCGTACGGAGTCACCTAGTGCAG | 8320 fluorescence intensity (a.u.)
5 | GTCAAAGCGTCTTCTAGTATGAAATGGGGTTCTTCAGTACCGGAGTCACCTAGTGCAG | 8610 fluorescence intensity (a.u.)
6 | TTTTCTTTATTTTCATATGAGATCTCTCTGTTTTAGAATACGGAGTCACCTAGTGCAG | 9240 fluorescence intensity (a.u.)
7 | GTCAGGTGGCGGCGGCGGCGGTGGTGGCGGTGGAGGTGGACGGAGTCACCTAGTGCAG | 14400 fluorescence intensity (a.u.)
8 | TTTCCATTGTCCTCCGCGCCGCTCACCGACCTCGACGGCGCGGAGTCACCTAGTGCAG | 8940 fluorescence intensity (a.u.)
9 | GCCGTGGTTCGATCGGGTGGCGGGTGGTTTTCCATCGGTCCGGAGTCACCTAGTGCAG | 8750 fluorescence intensity (a.u.)
10 | TCTCTCTCCTCTCCTATTCTCTCTCGTTCTCCTCTCTGTGCGGAGTCACCTAGTGCAG | 8480 fluorescence intensity (a.u.)
11 | ATTCATCACACAACTCATTCGTGGTCTTGCTTGTTTCGATCGGAGTCACCTAGTGCAG | 11600 fluorescence intensity (a.u.)
12 | GTCAGTTCGGTTTCTGTTTTTGTGCTATTCGGTGTACGGCCGGAGTCACCTAGTGCAG | 9450 fluorescence intensity (a.u.)
13 | ATATATAGTATATGTTATCAATTAATTGTCGTTTTGTCAACGGAGTCACCTAGTGCAG | 8780 fluorescence intensity (a.u.)
14 | AGACATCACCATTCACCAATGATAGCAGCAATTCTCTCTTCGGAGTCACCTAGTGCAG | 9140 fluorescence intensity (a.u.)
15 | GAAAAGAGATGGGAGGGATGGCTGATCAGCTCAGCTGGGGCGGAGTCACCTAGTGCAG | 8090 fluorescence intensity (a.u.)
16 | TTTACCATTTTTGTTCCTTTTCCTTTTCTTAGTTTTTTTACGGAGTCACCTAGTGCAG | 11300 fluorescence intensity (a.u.)
17 | AAAAAATTTTACAAACCCTGAGTTTCCATATCCAATGTTTCGGAGTCACCTAGTGCAG | 8030 fluorescence intensity (a.u.)
18 | GAAAACCCTGCAATTTCCGAAATTTCGCTTCAATGGGTAACGGAGTCACCTAGTGCAG | 8280 fluorescence intensity (a.u.)
19 | ATAGTTGTTGACTAAGTATCCAACTGCCAATGCTATCTCACGGAGTCACCTAGTGCAG | 8320 fluorescence intensity (a.u.)
20 | GGGCTGTTTAGTTTTGGATTGATTGAGCAATGTAATATAACGGAGTCACCTAGTGCAG | 8130 fluorescence intensity (a.u.)
21 | ATCAGGGAGATTGGGGTGTGCCGTGAGTGTGGCTTGCACGCGGAGTCACCTAGTGCAG | 8690 fluorescence intensity (a.u.)

Row | Sequence | binding signal
22 | TCAATGTTGCACTTCATATCCTTGTACTTACTATGTCTAACGGAGTCACCTAGTGCAG | 8940 fluorescence intensity (a.u.)
23 | GTTAGCCGTCCACTTGCGCGGACCACCCATCTAGTTTTAACGGAGTCACCTAGTGCAG | 9280 fluorescence intensity (a.u.)
24 | GGACCGTCCCTTTTTGGCAGCCCATGTAGTTTTATGCCTCCGGAGTCACCTAGTGCAG | 10000 fluorescence intensity (a.u.)
25 | CCCCTTCGCGTTTGCGTTTCCTCCGCCTCCTCACTCCAATCGGAGTCACCTAGTGCAG | 8600 fluorescence intensity (a.u.)
26 | CCTATTATCTTAATGACATTCTCGGATTTAATGTGTGACTCGGAGTCACCTAGTGCAG | 8390 fluorescence intensity (a.u.)
27 | ACTAATTCATCCCTGTAACCAGCTACCACTTCAATTTTCCCGGAGTCACCTAGTGCAG | 11600 fluorescence intensity (a.u.)
28 | GACGACGGCGGCGGGAGCAATCCGCGGCGACGGGGCGGGGCGGAGTCACCTAGTGCAG | 9170 fluorescence intensity (a.u.)
29 | ATAAACTTACAAATGGCTACCTTTTTGCATCTGCTTTTTTCGGAGTCACCTAGTGCAG | 9130 fluorescence intensity (a.u.)
30 | TCTCCTTCCGCGACGTGCTCAACATCCTCCATAACCTGCACGGAGTCACCTAGTGCAG | 9760 fluorescence intensity (a.u.)
31 | TGTTGTTTTTTATGTGTGAACCTCTTTGATCTCAATGCAACGGAGTCACCTAGTGCAG | 8510 fluorescence intensity (a.u.)
32 | TCCTGATGCCGCCACCACCTCCTTCGCTGTTACCACCTCTCGGAGTCACCTAGTGCAG | 9700 fluorescence intensity (a.u.)
33 | TCACCACCACCAATGCATGCAAACTCAACCAGCAGTCTCGCGGAGTCACCTAGTGCAG | 8360 fluorescence intensity (a.u.)
34 | ACGCTTTTCAAACTGCTAAACGGTGTATTTTGTGCGAAACCGGAGTCACCTAGTGCAG | 9150 fluorescence intensity (a.u.)
35 | GCCGTCCGAACAAAGCCAATATAGGAGTATCTTTTATCTTCGGAGTCACCTAGTGCAG | 10100 fluorescence intensity (a.u.)
36 | TCCCTTTCAACATGGTTCGTGCTACGATGCGATCTCATCACGGAGTCACCTAGTGCAG | 9240 fluorescence intensity (a.u.)
37 | TCTCAATCCGACGGCCCACTTCGCCATTTAGGCCAATTTTCGGAGTCACCTAGTGCAG | 10500 fluorescence intensity (a.u.)
38 | AGTTTTATATAGGGTGTTGCATGGGGTGTTTGGACATTAACGGAGTCACCTAGTGCAG | 11800 fluorescence intensity (a.u.)
39 | AATATCATCCGTGTCACTACCTAGCTCCTGCATGCTCTGCCGGAGTCACCTAGTGCAG | 8170 fluorescence intensity (a.u.)
40 | TTCGTGTCCACACCCCATCTTTATATGCTATTTTCTCAAACGGAGTCACCTAGTGCAG | 9170 fluorescence intensity (a.u.)
41 | GATTGGGGAAGCTGGAGTAGGTAAAACAGTACTCATCATACGGAGTCACCTAGTGCAG | 8570 fluorescence intensity (a.u.)
42 | TTTTCGTGTGCCTCCACTTTGGCATCAGATGCGGTTGACTCGGAGTCACCTAGTGCAG | 9000 fluorescence intensity (a.u.)

Single entries from the list:
Entry of GTTAGCCGTCCACTTGCGCGGACCACCCATCTAGTTTTAACGGAGTCACCTAGTGCAG under binding signal: 9280 fluorescence intensity (a.u.)
Entry of ATAAACTTACAAATGGCTACCTTTTTGCATCTGCTTTTTTCGGAGTCACCTAGTGCAG under binding signal: 9130 fluorescence intensity (a.u.)
Entry of TCACCACCACCAATGCATGCAAACTCAACCAGCAGTCTCGCGGAGTCACCTAGTGCAG under binding signal: 8360 fluorescence intensity (a.u.)

From PMC7819943, “Rice protein-binding microarrays: a tool to detect cis-acting elements near promoter regions in rice”
